# Inconclusive means that the source gave no clear call. Such entries were picked first, then a sample of the others. A potency beside an inconclusive call is a rough fit, not a confirmed value. Active and inactive are the calls of the source. The call rests on the fitted dose curve; in most records, active means well fitted inhibition curve with a large enough effect; inconclusive means small, poorly fitted or top-dose-only effect; inactive means no such curve, though single readings can be large or run the other way.
# The chains behind the UniProt entries cited, without tags or fusion partners. Where a name states a change or a piece, a line headed by the entry shows the natural chain unless it says otherwise.
# UniProt Q8WZA2: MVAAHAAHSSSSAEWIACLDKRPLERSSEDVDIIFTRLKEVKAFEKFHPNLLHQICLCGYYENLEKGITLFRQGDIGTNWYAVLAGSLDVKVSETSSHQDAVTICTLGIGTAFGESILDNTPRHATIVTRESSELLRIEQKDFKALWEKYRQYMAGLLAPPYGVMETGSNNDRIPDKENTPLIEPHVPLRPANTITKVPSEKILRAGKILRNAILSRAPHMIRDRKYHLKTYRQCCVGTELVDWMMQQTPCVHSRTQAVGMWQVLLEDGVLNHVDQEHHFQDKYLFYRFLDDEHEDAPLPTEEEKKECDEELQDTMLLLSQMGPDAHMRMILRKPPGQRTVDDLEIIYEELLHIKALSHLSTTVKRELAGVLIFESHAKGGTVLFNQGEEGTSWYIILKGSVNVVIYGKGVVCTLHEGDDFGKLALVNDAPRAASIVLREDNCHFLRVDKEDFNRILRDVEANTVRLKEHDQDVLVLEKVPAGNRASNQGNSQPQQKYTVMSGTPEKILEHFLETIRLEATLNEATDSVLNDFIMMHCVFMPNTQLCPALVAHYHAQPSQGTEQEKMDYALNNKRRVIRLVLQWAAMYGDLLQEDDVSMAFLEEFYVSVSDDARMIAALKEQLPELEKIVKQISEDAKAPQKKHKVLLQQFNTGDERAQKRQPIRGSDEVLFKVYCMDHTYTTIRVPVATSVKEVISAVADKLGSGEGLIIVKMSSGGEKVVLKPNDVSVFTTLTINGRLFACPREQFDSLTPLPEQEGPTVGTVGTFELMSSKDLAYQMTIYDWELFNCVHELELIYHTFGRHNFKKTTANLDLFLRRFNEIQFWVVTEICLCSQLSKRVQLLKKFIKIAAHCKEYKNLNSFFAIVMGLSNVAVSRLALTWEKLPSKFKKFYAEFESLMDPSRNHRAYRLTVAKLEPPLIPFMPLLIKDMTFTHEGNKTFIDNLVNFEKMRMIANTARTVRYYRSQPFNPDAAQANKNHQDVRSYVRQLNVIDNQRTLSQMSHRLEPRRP
# Target: Rap guanine nucleotide exchange factor 4 (Homo sapiens) (UniProt Q8WZA2)
# Assay: Confirmatory qHTS for antagonist of cAMP-regulated guanine nucleotide exchange factor 4 (EPAC2) (AID 1645885); further: nearly all actives have a fitted effect of over 25% in size
# Details: EPAC2 Rap1B-BODIPY-GDP exchange fluorescence, biochemical; activity change, negative = inhibition: at 12.7 µM (top of the series) unless noted; series mostly up to 114 µM
# On the % scale 0 is the no-effect control and ±100 the full control effect; potency means the concentration at half of the fitted maximal effect.
Structure (SMILES),"activity change, negative = inhibition",Potency
C=CCN(CC=C)Cc1cc(=O)oc2cc(OC)c(Cl)cc12,inactive: -29.2%,
CCOC(=O)C1CCCCN1Cc1cccc(Oc2ccccc2)c1 (stereo not given),,"inconclusive: 3.01 µM [inhibitor, partial curve, poor fit]"
CC(C)Oc1nc(-c2ccccc2Cl)nc2ccccc12,inactive: 27.5% [at 114 µM],
CN[C@@H](CO)C(=O)NC[C@H]1O[C@@H](n2cnc3c(N)ncnc32)[C@H](O)[C@@H]1O,inactive: -7.93% [at 114 µM],
Cc1cc(-c2nn(-c3ccccc3F)cc2CN2CCCC(O)C2)c(C)s1 (stereo not given),inactive: -12.2%,
COc1ccc(-c2c(-c3ccccc3OC)oc3ccccc23)cc1F,,active: 6.75 µM
CC(Oc1ccc(Cl)cc1Cl)c1ccn[nH]1 (stereo not given),,"inconclusive: 84.9 µM [inhibitor, single point]"
O=C(CC(=O)NC1CCCCC1)N/N=C/c1ccc(Cl)cc1,inactive: 43% [at 114 µM],
O=C(c1ccco1)N1CCN(c2cc(=O)n(C3CCCCC3)c(=O)[nH]2)CC1,inactive: 0.97% [at 114 µM],
Cc1ccc(Cl)cc1N1CCN(C(=O)c2cccc3c(=O)c(C)c(-c4ccccc4)oc23)CC1,,"inconclusive: 3.79 µM [inhibitor, partial curve]"
O=C(c1ccco1)N(Cc1ccccc1)c1cccc([N+](=O)[O-])c1,,"inconclusive: 37.9 µM [inhibitor, full curve]"
N#CC1=C(O)C(c2ccccc2)n2c1nc(=O)c1ccccc12 (stereo not given),inactive: 1.28%,
Cn1c(=O)c(CCc2ccccc2)nc2cnc(Oc3ccccc3)nc21,inactive: -0.521% [at 114 µM],
CCC(C(=O)OC)n1c(-c2ccccc2)nc2ccccc2c1=O (stereo not given),,active: 19 µM
CNc1ccc(-c2nc(-c3ccco3)no2)cc1[N+](=O)[O-],,"inconclusive: 8.49 µM [inhibitor, single point]"
COc1cc(SC)ccc1C(=O)Nc1c(C)cccc1C,,"inconclusive: 8.49 µM [inhibitor, partial curve, poor fit]"
COC(=O)CCCOc1ccc(Cl)cc1Cl,,"inconclusive: 22.1 µM [inhibitor, full curve]"
CCOC(=O)C1CCCN(C(=O)c2cnn(-c3nccc(-c4cc(C)sc4C)n3)c2C)C1 (stereo not given),,"inconclusive: 44.1 µM [inhibitor, partial curve]"

Structure (SMILES),"activity change, negative = inhibition",Potency
CC1CCN(c2oc(-c3ccccc3F)nc2C#N)CC1,,"inconclusive: 23.9 µM [inhibitor, full curve, poor fit]"
Cc1cc(C)c2nccc(/C=C/c3ccc(N(C)C)cc3)c2c1,,"inconclusive: 44.1 µM [inhibitor, partial curve, poor fit]"
CCc1nc2c(OCc3ccc(C#N)cc3)cccn2c1N(C)C(=O)c1ccc(C)cc1,,active: 19 µM
O=C1CC[C@@]23/C=C/C(=O)NCCCCNCCCNC(=O)/C=C/c4ccc(c2c4)OC3C1 (stereo not given in full),inactive: -1.6% [at 114 µM],
O=C1O/C(=C/c2ccccc2)N=C1c1ccccc1,inactive: -1.75% [at 114 µM],
CCC(C(=O)OC(C)C)c1ccc2ccccc2c1 (stereo not given),,"inconclusive: 26.9 µM [inhibitor, full curve]"
CC(=O)OC1CSC2c3ccccc3C(=O)N2Cc2sccc21 (stereo not given),,"inconclusive: 0.849 µM [inhibitor, partial curve, poor fit]"
COCCN(C)Cc1nc(C(c2ccccc2)c2ccccc2)no1,,active: 47.8 µM
C=CCn1c(SC(F)F)nc2scc(-c3ccco3)c2c1=O,,"inconclusive: 23.9 µM [inhibitor, full curve]"
COc1cc(Br)cc(C(=O)N2CCc3ccccc32)c1OC,,"inconclusive: 19 µM [inhibitor, full curve, poor fit]"
COc1ccc(/C=N/N=C2/C(=O)Nc3ccccc32)cc1O,inactive: -46.6%,
Cc1ccc(-c2ccccc2C2=CC(=O)CC(C)(C)C2=O)cc1,,"inconclusive: 3.01 µM [inhibitor, partial curve]"
CCn1cc(SCC(=O)NCc2ccc3c(c2)OCO3)c2ccccc21,inactive: -13.4%,
COc1cc(/C=C2\SC(=S)N(NC(=O)c3ccc(O)cc3)C2=O)ccc1O,,"inconclusive: 47.8 µM [inhibitor, partial curve]"
Cc1ccc2nccc(/C=C/c3ccc(N(C)C)cc3)c2c1,,"inconclusive: 31.2 µM [inhibitor, partial curve]"
Cc1ccc2c(/C=C/c3ccc(N(C)C)cc3)ccnc2c1C,,"inconclusive: 35 µM [inhibitor, partial curve]"
Oc1ccc(/C=N/Nc2ncnc3nc[nH]c23)cc1,,"inconclusive: 4.78 µM [inhibitor, partial curve]"

# 2 consecutive records from above:
Structure (SMILES),"activity change, negative = inhibition",Potency
O=C1CC[C@@]23/C=C/C(=O)NCCCCNCCCNC(=O)/C=C/c4ccc(c2c4)OC3C1 (stereo not given in full),inactive: -1.6% [at 114 µM],
O=C1O/C(=C/c2ccccc2)N=C1c1ccccc1,inactive: -1.75% [at 114 µM],
